The values that follow come from patent US20070105759A1 (priority 2003, published 2007).

The chains behind the UniProt entries cited, without tags or fusion partners. Where a name states a change or a piece, a line headed by the entry shows the natural chain unless it says otherwise.
UniProt Q01726: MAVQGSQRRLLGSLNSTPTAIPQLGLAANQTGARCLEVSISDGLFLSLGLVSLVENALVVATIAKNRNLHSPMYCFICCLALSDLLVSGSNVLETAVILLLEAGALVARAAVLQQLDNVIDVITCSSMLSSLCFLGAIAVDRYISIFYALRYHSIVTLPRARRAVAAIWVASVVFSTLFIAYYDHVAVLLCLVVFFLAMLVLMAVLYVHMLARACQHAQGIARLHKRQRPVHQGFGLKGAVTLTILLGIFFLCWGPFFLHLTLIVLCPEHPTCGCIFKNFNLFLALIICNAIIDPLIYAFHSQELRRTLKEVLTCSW

The assay addresses MC1 (Homo sapiens, UniProt Q01726).

`CC(=O)N[C@@H](CS(=O)(=O)O)C(=O)N[C@@H](CCCNC(=N)N)C(=O)N[C@H]1CSSC[C@@H](C(N)=O)NC(=O)[C@H](Cc2c[nH]c3ccccc23)NC(=O)[C@H](CCCNC(=N)N)NC(=O)[C@@H](Cc2ccccc2)NC(=O)[C@H](Cc2c[nH]cn2)NC(=O)[C@H](C)NC1=O` [Compound No. 2, Ac-Cya-Arg-cyclo[Cys-Ala-His-D-Phe-Arg-Trp-Cys]-NH2] showed an MC1/MC4 selectivity of 10.70.
